Results deposited as PubChem BioAssay AID1053208 (Peter MacCallum Cancer Centre, 2014)
Test: 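Synthetic lethal interactions between gene loss and doxorubicin in osteosarcoma cells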 (primary screen). Cells: mouse osteosarcoma cells, early-passage culture from an engineered mouse model of fibroblastic bone tumour. Reagents: siRNA pool against mouse genes, 40 nM. Duration: about 120 h (48 h before drug, then 72 h with drug). Treatment: doxorubicin 100 nM for 72 h, roughly 30-40% inhibitory dose. Measured: 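Viability read as ATP luminescence after 72 h of 100 nM doxorubicin or none, duplicate wells averaged, scaled to non-targeting siRNA, then expressed as robust z-scores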. Direction: viability z-score with doxorubicin: higher = more viable cells under doxorubicin; viability z-score without drug: higher = more viable cells with knock-down alone. Rule for the call: 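a pool counts as active when its viability z-score with doxorubicin is -2 or below and its z-score without drug lies between -2 and 2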.
Here is a random part of about 17,000 deposited reagents. Over the whole deposit, 788 (4.7%) got an active call. 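Calls rest on z-score classes alone; an extra cut-off of viability at most 70% of control was not applied to them.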 Not all columns of the deposit are shown.

| gene | combined z-score class | viability z-score with doxorubicin | viability z-score without drug | activity call |
| --- | --- | --- | --- | --- |
| C730014E05Rik (GeneID 105246089) | no change with or without drug | -0.9 | -0.51 | inactive |
| Ap3s1 (GeneID 11777) | no change with or without drug | -0.22 | -0.67 | inactive |
| Acvr1 (GeneID 11477) | no change with or without drug | 0 | -0.51 | inactive |
| Dgka (GeneID 13139) | no change with or without drug | 0 | 0.17 | inactive |
| C5ar1 (GeneID 12273) | no change with or without drug | -0.56 | 0.51 | inactive |
| Arhgef10l (GeneID 72754) | high cell count with doxorubicin only | 2.59 | 1.18 | inactive |
| Mettl8 (GeneID 228019) | no change with or without drug | 1.8 | -0.17 | inactive |
| Gstt1 (GeneID 14871) | no change with or without drug | 0.67 | 1.85 | inactive |
| Tfec (GeneID 21426) | no change with or without drug | 0.22 | 0.34 | inactive |
| Pgm2l1 (GeneID 70974) | no change with or without drug | 0.56 | -0.17 | inactive |
| Blvrb (GeneID 233016) | no change with or without drug | 0.67 | 0.51 | inactive |
| Stil (GeneID 20460) | no change with or without drug | 0.22 | -0.84 | inactive |
| S100g (GeneID 12309) | no change with or without drug | 1.69 | 0.34 | inactive |
| Creb3l2 (GeneID 208647) | no change with or without drug | 0.67 | 1.18 | inactive |
| Npm3 (GeneID 18150) | no change with or without drug | 0.9 | -0.84 | inactive |
| Aard (GeneID 239435) | no change with or without drug | 0.45 | 0.17 | inactive |
| Rab7b (GeneID 226421) | low cell count with doxorubicin only | -2.7 | 0.84 | active |
| Mgmt (GeneID 17314) | no change with or without drug | -1.57 | -1.18 | inactive |
| Rtl1 (GeneID 353326) | no change with or without drug | 1.91 | 1.85 | inactive |

Targets listed so far whose target name begins with A or a:
| gene | combined z-score class | viability z-score with doxorubicin | viability z-score without drug | activity call |
| --- | --- | --- | --- | --- |
| Ap3s1 (GeneID 11777) | no change with or without drug | -0.22 | -0.67 | inactive |
| Acvr1 (GeneID 11477) | no change with or without drug | 0 | -0.51 | inactive |
| Arhgef10l (GeneID 72754) | high cell count with doxorubicin only | 2.59 | 1.18 | inactive |
| Aard (GeneID 239435) | no change with or without drug | 0.45 | 0.17 | inactive |

The listing continues.
| gene | combined z-score class | viability z-score with doxorubicin | viability z-score without drug | activity call |
| --- | --- | --- | --- | --- |
| Slc39a7 (GeneID 14977) | low cell count with doxorubicin only | -3.6 | -0.51 | active |
| Il33 (GeneID 77125) | no change with or without drug | 0.45 | 0.34 | inactive |
| Cc2d2a (GeneID 231214) | no change with or without drug | -1.57 | -0.17 | inactive |
| Or5b123 (GeneID 258629) | no change with or without drug | 1.12 | -1.01 | inactive |
| Mbtps1 (GeneID 56453) | no change with or without drug | 0.11 | -0.34 | inactive |
| Luc7l3 (GeneID 67684) | low cell count with doxorubicin only | -2.25 | -1.01 | active |
| Dlk1 (GeneID 13386) | no change with or without drug | -0.67 | -1.18 | inactive |
| Nr1h4 (GeneID 20186) | no change with or without drug | 0.9 | 0.67 | inactive |
| Matn4 (GeneID 17183) | no change with or without drug | -1.46 | 1.18 | inactive |
| Tomm7 (GeneID 66169) | no change with or without drug | -0.56 | -1.18 | inactive |
| Asah1 (GeneID 11886) | no change with or without drug | 1.57 | 0.51 | inactive |
| Or8k24 (GeneID 258386) | no change with or without drug | -1.69 | -1.52 | inactive |
| Map3k2 (GeneID 26405) | no change with or without drug | -0.79 | -1.35 | inactive |
| Prnd (GeneID 26434) | no change with or without drug | 0.22 | -0.67 | inactive |
| Trarg1 (GeneID 237858) | no change with or without drug | 0.45 | 1.01 | inactive |
| Or51l4 (GeneID 259102) | no change with or without drug | -0.9 | -1.18 | inactive |
| Sult1b1 (GeneID 56362) | no change with or without drug | 1.35 | -0.34 | inactive |
| Tmem125 (GeneID 230678) | low cell count without drug only | -0.67 | -3.04 | inactive |
| Gas5 (GeneID 14455) | low cell count with doxorubicin only | -2.02 | -0.84 | active |
| Arid5a (GeneID 214855) | no change with or without drug | 0.67 | 1.01 | inactive |
| Pip4p2 (GeneID 72519) | no change with or without drug | -0.67 | 0.17 | inactive |
| Usp24 (GeneID 329908) | low cell count with doxorubicin only | -2.02 | -1.35 | active |
| Arhgap18 (GeneID 73910) | no change with or without drug | -1.01 | -0.17 | inactive |
| Il17rc (GeneID 171095) | no change with or without drug | 0.67 | 0.51 | inactive |
| Ifi209 (GeneID 236312) | no change with or without drug | 0.56 | -0.51 | inactive |
| Cbx7 (GeneID 52609) | no change with or without drug | 1.01 | -0.67 | inactive |
| Or4c104 (GeneID 258450) | no change with or without drug | -1.35 | 0 | inactive |
| Vps16 (GeneID 80743) | low cell count with doxorubicin only | -2.25 | -1.01 | active |
| Pgam2 (GeneID 56012) | high cell count with and without drug | 2.47 | 3.71 | inactive |
| Ptms (GeneID 69202) | no change with or without drug | 0.56 | 0.51 | inactive |
| Zbtb32 (GeneID 58206) | no change with or without drug | -1.24 | -1.52 | inactive |
